Laboratory results taken from article PMC7199855, “GRAF2, WDR44, and MICAL1 mediate Rab8/10/11–dependent export of E-cadherin, MMP14, and CFTR ΔF508” (The Journal of Cell Biology, 2020).
These are yes or no findings as the source states them, for the method shown. In cells and extracts the contact can be indirect. Some entries that bind do so weakly or less than the wild type. Tags and fused reporters may be left off the sequences shown.

Amino acid sequences for entries named in this document (tags omitted).
UniProt Q8IY33: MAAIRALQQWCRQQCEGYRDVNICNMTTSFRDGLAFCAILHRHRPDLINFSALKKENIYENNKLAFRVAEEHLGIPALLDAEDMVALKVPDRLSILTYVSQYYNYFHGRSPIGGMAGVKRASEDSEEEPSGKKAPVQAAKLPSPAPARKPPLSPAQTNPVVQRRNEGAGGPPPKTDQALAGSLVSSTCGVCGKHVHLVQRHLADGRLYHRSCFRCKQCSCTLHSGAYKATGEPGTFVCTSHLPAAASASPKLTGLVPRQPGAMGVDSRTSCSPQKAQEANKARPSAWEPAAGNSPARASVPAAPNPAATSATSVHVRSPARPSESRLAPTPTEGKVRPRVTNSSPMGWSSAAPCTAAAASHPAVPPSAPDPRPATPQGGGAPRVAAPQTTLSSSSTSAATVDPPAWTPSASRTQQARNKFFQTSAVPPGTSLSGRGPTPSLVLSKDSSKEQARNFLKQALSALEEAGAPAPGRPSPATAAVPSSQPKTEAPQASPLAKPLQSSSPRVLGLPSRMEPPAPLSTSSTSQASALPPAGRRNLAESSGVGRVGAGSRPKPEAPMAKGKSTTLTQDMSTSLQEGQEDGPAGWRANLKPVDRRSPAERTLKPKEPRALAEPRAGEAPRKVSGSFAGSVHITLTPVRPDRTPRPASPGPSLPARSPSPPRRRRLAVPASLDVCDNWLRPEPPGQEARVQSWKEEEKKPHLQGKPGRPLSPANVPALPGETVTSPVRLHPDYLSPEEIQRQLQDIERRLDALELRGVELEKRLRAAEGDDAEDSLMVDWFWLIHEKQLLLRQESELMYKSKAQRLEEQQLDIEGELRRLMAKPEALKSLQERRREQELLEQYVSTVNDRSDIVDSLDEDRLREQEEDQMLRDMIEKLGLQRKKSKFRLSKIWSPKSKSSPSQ

Assays:
Test in all cases: co-IP; transfected 293T, IP with α-GFP and Protein G Sepharose; 20 mM Hepes pH 7.4, 150 mM NaCl, 2 mM EDTA, 1% IGEPAL CA-630; Western blot
[1] = target: T1, GFP-WDR44 ΔPro (human) (UniProt Q5JSH3)
T1 sequence: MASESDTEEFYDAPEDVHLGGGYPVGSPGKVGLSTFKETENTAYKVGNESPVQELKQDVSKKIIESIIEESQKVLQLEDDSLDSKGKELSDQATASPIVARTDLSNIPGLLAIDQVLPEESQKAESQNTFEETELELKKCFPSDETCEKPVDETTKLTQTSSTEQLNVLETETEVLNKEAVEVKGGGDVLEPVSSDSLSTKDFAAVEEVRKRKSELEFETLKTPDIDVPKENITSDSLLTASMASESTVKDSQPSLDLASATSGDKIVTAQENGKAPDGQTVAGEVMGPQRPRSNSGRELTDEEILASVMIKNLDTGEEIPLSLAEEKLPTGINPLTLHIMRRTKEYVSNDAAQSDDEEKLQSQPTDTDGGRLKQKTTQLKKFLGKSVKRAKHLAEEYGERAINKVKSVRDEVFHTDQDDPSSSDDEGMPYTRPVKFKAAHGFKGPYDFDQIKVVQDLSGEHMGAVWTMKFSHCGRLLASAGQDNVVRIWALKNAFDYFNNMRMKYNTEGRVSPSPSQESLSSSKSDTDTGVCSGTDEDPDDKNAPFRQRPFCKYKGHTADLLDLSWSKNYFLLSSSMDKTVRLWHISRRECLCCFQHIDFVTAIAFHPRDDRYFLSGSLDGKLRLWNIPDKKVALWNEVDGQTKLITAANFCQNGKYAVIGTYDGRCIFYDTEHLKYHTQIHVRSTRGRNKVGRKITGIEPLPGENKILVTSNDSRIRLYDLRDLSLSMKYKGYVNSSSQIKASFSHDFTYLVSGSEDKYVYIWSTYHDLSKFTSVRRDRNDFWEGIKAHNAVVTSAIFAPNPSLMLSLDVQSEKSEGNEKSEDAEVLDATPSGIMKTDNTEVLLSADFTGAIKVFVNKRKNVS

[2] = target: T2, GFP–MICAL1 G3W (human) (UniProt Q8TDZ2)
T2 sequence: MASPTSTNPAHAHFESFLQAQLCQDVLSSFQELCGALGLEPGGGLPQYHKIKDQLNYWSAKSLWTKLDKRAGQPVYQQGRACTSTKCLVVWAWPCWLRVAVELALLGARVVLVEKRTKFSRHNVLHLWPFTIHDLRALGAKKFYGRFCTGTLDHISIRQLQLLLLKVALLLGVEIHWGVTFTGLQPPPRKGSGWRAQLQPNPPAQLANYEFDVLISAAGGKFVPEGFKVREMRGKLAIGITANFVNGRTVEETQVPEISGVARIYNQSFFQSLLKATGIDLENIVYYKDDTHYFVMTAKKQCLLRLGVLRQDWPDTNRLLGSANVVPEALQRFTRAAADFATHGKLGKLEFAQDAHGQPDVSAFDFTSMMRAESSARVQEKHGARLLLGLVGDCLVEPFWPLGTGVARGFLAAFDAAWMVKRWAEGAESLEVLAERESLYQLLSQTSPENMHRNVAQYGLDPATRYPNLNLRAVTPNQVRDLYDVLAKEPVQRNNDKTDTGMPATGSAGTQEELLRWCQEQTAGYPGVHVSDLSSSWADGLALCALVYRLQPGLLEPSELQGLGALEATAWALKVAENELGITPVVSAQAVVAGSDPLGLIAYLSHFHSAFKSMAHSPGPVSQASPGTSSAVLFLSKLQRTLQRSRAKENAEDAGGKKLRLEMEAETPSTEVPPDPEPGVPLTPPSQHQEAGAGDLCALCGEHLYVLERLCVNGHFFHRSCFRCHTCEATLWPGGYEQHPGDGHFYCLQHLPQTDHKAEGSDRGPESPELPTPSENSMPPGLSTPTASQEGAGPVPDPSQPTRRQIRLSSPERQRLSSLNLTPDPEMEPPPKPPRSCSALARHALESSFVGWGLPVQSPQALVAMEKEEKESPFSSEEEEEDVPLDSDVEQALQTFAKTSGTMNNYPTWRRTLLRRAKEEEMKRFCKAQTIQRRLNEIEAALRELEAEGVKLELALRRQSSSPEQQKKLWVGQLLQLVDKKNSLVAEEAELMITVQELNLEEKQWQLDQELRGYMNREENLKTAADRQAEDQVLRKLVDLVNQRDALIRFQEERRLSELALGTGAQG

[3] = target: GFP–MICAL-L2 (human) (UniProt Q8IY33)

binding [1]: no binding | binding [2]: binds | binding [3]: no binding
B1: GRAF1b-myc (protein, UniProt Q9UNA1-2 1-759)
chain: MGLPALEFSDCCLDSPHFRETLKSHEAELDKTNKFIKELIKDGKSLISALKNLSSAKRKFADSLNEFKFQCIGDAETDDEMCIARSLQEFATVLRNLEDERIRMIENASEVLITPLEKFRKEQIGAAKEAKKKYDKETEKYCGILEKHLNLSSKKKESQLQEADSQVDLVRQHFYEVSLEYVFKVQEVQERKMFEFVEPLLAFLQGLFTFYHHGYELAKDFGDFKTQLTISIQNTRNRFEGTRSEVESLMKKMKENPLEHKTISPYTMEGYLYVQEKRHFGTSWVKHYCTYQRDSKQITMVPFDQKSGGKGGEDESVILKSCTRRKTDSIEKRFCFDVEAVDRPGVITMQALSEEDRRLWMEAMDGREPVYNSNKDSQSEGTAQLDSIGFSIIRKCIHAVETRGINEQGLYRIVGVNSRVQKLLSVLMDPKTASETETDICAEWEIKTITSALKTYLRMLPGPLMMYQFQRSFIKAAKLENQESRVSEIHSLVHRLPEKNRQMLQLLMNHLANVANNHKQNLMTVANLGVVFGPTLLRPQEETVAAIMDIKFQNIVIEILIENHEKIFNTVPDMPLTNAQLHLSRKKSSDSKPPSCSERPLTLFHTVQSTEKQEQRNSIINSSLESVSSNPNSILNSSSSLQPNMNSSDPDLAVVKPTRPNSLPPNPSPTSPLSPSWPMFSAPSSPMPTSSTSSDSSPVSTPFRKAKALYACKAEHDSELSFTAGTVFDNVHPSQEPGWLEGTLNGKTGLIPENYVEFL
